Values from PubChem BioAssay AID1259254 (NCATS, 2017)

Assay: 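Finding genes that stop cells copying their DNA twice in one cycle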 (primary screen)
Cell system: human HCT116 colorectal cancer cells
Knock-down reagent: single siRNA against human genes
Time to read-out: 3 days
Read-out: 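Nuclei stained with Hoechst and imaged; cell-cycle phase assigned by DNA content; G2 share scaled per plate, non-targeting siRNA 0%, GMNN siRNA 100%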
Reading the numbers: G2 robust z-score and G2 cells, % of GMNN control: higher = more G2 cells, more excess DNA replication
Rule for the call: 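Active siRNAs have a G2 robust z of 5 or more median absolute deviations over the median, which in these data means about 38% or higher of GMNN control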
The whole screen tested about 59,000 reagents; below is a random part of them. About 1,550 of them (2.6%) were called active. 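G2 share is only a proxy for re-replication; each gene was hit by three separate siRNAs, and active genes were retested.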 Entries without a mark were called inactive. Reagents against one gene are numbered here. Not all columns of the deposit are shown. Not given: the amount of reagent.

VWA5A (von Willebrand factor A domain containing 5A) #1 gave G2 robust z-score 2.6; G2 cells, % of GMNN control 21.2.
Knock-down of VWA5A (von Willebrand factor A domain containing 5A) #2 resulted in: G2 robust z-score 0.215; G2 cells, % of GMNN control 4.48.
After knock-down of VWA5A (von Willebrand factor A domain containing 5A) #3, the screen gave G2 robust z-score 0.539; G2 cells, % of GMNN control 6.76.
Knock-down of RGS9BP (regulator of G protein signaling 9 binding protein) #1 resulted in: G2 robust z-score -0.0388; G2 cells, % of GMNN control 2.69.
Against RGS9BP (regulator of G protein signaling 9 binding protein) #2 the deposit lists G2 robust z-score 0.254; G2 cells, % of GMNN control 4.75.
Depletion of RGS9BP (regulator of G protein signaling 9 binding protein) #3 resulted in: G2 robust z-score -0.137; G2 cells, % of GMNN control 2.
After knock-down of MS4A14 (membrane spanning 4-domains A14) #1, the record shows G2 robust z-score -0.795; G2 cells, % of GMNN control -2.62.
Knock-down of MS4A14 (membrane spanning 4-domains A14) #2 resulted in: G2 robust z-score 0.936; G2 cells, % of GMNN control 9.55.
MS4A14 (membrane spanning 4-domains A14) #3 gave G2 robust z-score -0.358; G2 cells, % of GMNN control 0.449.
Knock-down of GLTP (glycolipid transfer protein) #1 gave: G2 robust z-score -0.231; G2 cells, % of GMNN control 1.34.
For GLTP (glycolipid transfer protein) #2, the entry reads G2 robust z-score 1.35; G2 cells, % of GMNN control 12.4.
Knock-down of GLTP (glycolipid transfer protein) #3 resulted in: G2 robust z-score 0.527; G2 cells, % of GMNN control 6.68.
Knock-down of RASA1 (RAS p21 protein activator 1) #1 gave: G2 robust z-score 1.48; G2 cells, % of GMNN control 13.4.
With knock-down of RASA1 (RAS p21 protein activator 1) #2, the record shows G2 robust z-score -0.291; G2 cells, % of GMNN control 0.917.
RASA1 (RAS p21 protein activator 1) #3 showed G2 robust z-score 2.17; G2 cells, % of GMNN control 18.2.
For TMEM187 (transmembrane protein 187) #1, the values are G2 robust z-score -0.236; G2 cells, % of GMNN control 1.31.
TMEM187 (transmembrane protein 187) #2 gave G2 robust z-score -0.081; G2 cells, % of GMNN control 2.4.
TMEM187 (transmembrane protein 187) #3 gave G2 robust z-score 0.705; G2 cells, % of GMNN control 7.93.

Laid out differently: entries from further up.
target gene,reagent,G2 robust z-score,"G2 cells, % of GMNN control"
TMEM187 (transmembrane protein 187),1,-0.236,1.31
TMEM187 (transmembrane protein 187),2,-0.081,2.4
